{"sequences": {"note": "Protein sequences, listed by entry. Tags and fused reporters are not part of them.", "UniProt P06733": "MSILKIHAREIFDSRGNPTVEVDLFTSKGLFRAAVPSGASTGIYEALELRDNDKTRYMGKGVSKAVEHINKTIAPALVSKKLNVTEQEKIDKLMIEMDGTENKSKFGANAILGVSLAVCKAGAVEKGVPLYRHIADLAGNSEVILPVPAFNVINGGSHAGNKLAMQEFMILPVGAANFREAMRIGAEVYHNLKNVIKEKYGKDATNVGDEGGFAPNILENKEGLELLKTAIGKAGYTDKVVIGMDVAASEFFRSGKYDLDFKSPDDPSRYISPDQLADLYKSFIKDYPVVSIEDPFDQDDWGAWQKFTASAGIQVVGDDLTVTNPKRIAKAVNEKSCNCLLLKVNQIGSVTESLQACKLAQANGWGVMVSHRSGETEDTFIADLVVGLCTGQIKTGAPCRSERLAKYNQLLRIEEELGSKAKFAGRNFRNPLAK"}, "source": "paper PMC10878141", "target": "T1, ubiquitin-specific protease 21 (USP21) (human (endogenous in QBC939 and HuCCT1)) (UniProt Q9UK80)", "T1 sequence": "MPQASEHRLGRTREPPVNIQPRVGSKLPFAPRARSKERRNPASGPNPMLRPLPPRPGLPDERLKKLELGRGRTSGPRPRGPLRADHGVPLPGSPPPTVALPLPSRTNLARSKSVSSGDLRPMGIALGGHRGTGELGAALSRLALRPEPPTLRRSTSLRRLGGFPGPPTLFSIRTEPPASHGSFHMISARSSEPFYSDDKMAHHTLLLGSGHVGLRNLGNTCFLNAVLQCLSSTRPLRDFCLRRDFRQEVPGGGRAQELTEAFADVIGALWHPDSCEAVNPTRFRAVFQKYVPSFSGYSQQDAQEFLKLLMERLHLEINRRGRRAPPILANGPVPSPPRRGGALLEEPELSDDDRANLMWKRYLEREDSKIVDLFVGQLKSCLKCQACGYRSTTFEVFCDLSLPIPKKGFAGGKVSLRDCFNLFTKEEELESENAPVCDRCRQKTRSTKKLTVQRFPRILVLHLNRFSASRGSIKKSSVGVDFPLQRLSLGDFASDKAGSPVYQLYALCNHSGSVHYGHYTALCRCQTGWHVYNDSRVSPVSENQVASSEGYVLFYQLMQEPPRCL", "assay": "affinity purification with mass spectrometry; IP of total protein of CCA cells with USP21 antibody (sc-515911) and Protein A/G-agarose beads, then mass spectrometry", "note": "Results are given in words; binding and its absence hold for the method and conditions named. In cells and extracts the contact can be indirect. A yes stands for co-enrichment or nearness to the bait. Other partners may have been found.", "data": [{"substance": "alpha-Enolase 1 (ENO1) (from UniProt P06733 1-434) (enzyme)", "values": [{"measurement": "binding", "result": "binds"}]}]}
